{"sequences": {"note": "Protein sequences, listed by entry. Tags and fused reporters are not part of them.", "UniProt Q9UHI6": "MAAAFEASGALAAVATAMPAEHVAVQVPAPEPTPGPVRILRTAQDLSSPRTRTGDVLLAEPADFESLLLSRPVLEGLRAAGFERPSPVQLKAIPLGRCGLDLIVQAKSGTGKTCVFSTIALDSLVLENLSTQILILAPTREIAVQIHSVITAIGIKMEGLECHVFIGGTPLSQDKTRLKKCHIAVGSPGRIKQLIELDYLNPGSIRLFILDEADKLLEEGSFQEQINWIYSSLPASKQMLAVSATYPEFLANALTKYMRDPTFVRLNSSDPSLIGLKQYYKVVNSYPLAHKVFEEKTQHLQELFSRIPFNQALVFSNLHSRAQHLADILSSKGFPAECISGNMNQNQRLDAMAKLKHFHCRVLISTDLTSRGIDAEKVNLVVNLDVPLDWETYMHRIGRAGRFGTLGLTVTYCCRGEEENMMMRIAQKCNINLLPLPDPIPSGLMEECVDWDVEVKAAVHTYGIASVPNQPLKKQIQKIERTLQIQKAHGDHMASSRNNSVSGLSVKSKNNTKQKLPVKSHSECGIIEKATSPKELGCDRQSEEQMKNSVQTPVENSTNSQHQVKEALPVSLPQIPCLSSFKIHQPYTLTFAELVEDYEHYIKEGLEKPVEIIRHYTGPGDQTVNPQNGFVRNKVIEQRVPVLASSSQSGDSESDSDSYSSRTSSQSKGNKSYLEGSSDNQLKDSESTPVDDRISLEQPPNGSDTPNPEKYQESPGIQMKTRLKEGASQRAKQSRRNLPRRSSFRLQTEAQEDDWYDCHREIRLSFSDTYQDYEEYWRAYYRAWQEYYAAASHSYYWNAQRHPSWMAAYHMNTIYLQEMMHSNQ"}, "source": "paper PMC10545698", "biological_target": "T1, WD repeat domain 4 (WDR4) (human (endogenous in UM-UC-3 and 5637)) (UniProt P57081)", "T1 sequence": "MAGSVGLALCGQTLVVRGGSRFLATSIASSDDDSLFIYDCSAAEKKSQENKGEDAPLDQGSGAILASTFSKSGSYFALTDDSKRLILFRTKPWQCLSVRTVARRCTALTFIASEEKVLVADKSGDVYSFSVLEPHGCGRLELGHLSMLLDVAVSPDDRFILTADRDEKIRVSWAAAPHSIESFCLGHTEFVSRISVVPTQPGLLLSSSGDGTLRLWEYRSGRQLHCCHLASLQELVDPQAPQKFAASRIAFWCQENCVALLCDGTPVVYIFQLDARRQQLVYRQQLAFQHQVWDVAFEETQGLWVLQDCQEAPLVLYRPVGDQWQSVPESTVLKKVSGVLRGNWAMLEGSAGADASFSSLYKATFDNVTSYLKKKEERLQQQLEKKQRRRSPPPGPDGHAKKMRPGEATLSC", "assay": "affinity purification with mass spectrometry; endogenous WDR4 immunoprecipitated with an anti-WDR4 antibody from UM-UC-3 and 5637 cell lysates (IgG as control, Protein A/G magnetic beads); eluted proteins identified by LC-MS/MS", "note": "Results are given in words; binding and its absence hold for the method and conditions named. Binding seen in cells or lysates may run through a third protein. A yes stands for co-enrichment or nearness to the bait. Other partners may have been found.", "data": [{"substance": "DEAD-box helicase 20 (DDX20) (from UniProt Q9UHI6 1-824)", "values": [{"measurement": "binding", "value": "binds"}]}]}
